Experimental data: PubChem BioAssay AID1259331 (Drosophila RNAi Screening Center, 2017)

- Purpose: 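Genes whose knock-down changes cell survival under toxic zinc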 (primary screen)
- Cell system: Drosophila S2R+ cells
- Knock-down reagent: long dsRNA against Drosophila genes
- Time to read-out: 5 days (4 days knock-down, then 1 day zinc)
- Treatment: zinc chloride at 15 mM final level for 1 day
- Measured: 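Luminescent ATP assay standing in for viability; Z score is the mean over three replicate plates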
- Reading the numbers: mean Z score: higher = more ATP than other wells, better survival under zinc; ATP luminescence: higher = more ATP, more viable cells
- Call rule: 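a reagent is called a hit when its Z score is above 1.5 or below -1.5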
- Calls: active = hit, ATP up or down; inactive = not a hit
In all, the deposit lists about 3,100 reagents; this is an unselected part. Of all reagents, 126 (4.1%) are marked active. 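Calls are per reagent; zinc was so toxic that few knock-downs lowered ATP further, so most hits raise ATP.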 The raw values are shown without normalisation. Entries without a mark were called inactive. No sequences are given here. Not stated in the record: the amount of reagent.

The opening 3 entries as a preview:
Recs1 [DRSC16545] — mean Z score = -0.104; ATP luminescence, replicate 1 = 36062; ATP luminescence, replicate 2 = 55076
Recs1 [DRSC39698] — mean Z score = 0.455; ATP luminescence, replicate 1 = 68041; ATP luminescence, replicate 2 = 60238
xit [DRSC18364] — mean Z score = -0.387; ATP luminescence, replicate 1 = 42106; ATP luminescence, replicate 2 = 39730

Main list, from the first entry:
Recs1 [DRSC16545] — mean Z score = -0.104; ATP luminescence, replicate 1 = 36062; ATP luminescence, replicate 2 = 55076
Recs1 [DRSC39698] — mean Z score = 0.455; ATP luminescence, replicate 1 = 68041; ATP luminescence, replicate 2 = 60238
xit [DRSC18364] — mean Z score = -0.387; ATP luminescence, replicate 1 = 42106; ATP luminescence, replicate 2 = 39730
xit [DRSC39724] — mean Z score = -0.274; ATP luminescence, replicate 1 = 54407; ATP luminescence, replicate 2 = 55436
robo1 [DRSC04712] — mean Z score = 0.131; ATP luminescence, replicate 1 = 52624; ATP luminescence, replicate 2 = 37982
Or33c [DRSC03388] — mean Z score = 0.373; ATP luminescence, replicate 1 = 60649; ATP luminescence, replicate 2 = 37227
Orai [DRSC22061] — mean Z score = 0.283; ATP luminescence, replicate 1 = 47360; ATP luminescence, replicate 2 = 53883
Orai [DRSC39837] — mean Z score = 0.0637; ATP luminescence, replicate 1 = 56135; ATP luminescence, replicate 2 = 58163
NLaz [DRSC21521] — mean Z score = 0.477; ATP luminescence, replicate 1 = 51852; ATP luminescence, replicate 2 = 56117
MFS18 [DRSC00452] — mean Z score = -0.00353; ATP luminescence, replicate 1 = 51527; ATP luminescence, replicate 2 = 61106
MFS18 [DRSC39625] — mean Z score = 0.529; ATP luminescence, replicate 1 = 66874; ATP luminescence, replicate 2 = 65489
CG32262 [DRSC08165] — mean Z score = -0.517; ATP luminescence, replicate 1 = 25517; ATP luminescence, replicate 2 = 30919
CG32262 [DRSC29141] — mean Z score = 0.702; ATP luminescence, replicate 1 = 74524; ATP luminescence, replicate 2 = 69858
Or43b [DRSC07486] — mean Z score = -0.615; ATP luminescence, replicate 1 = 51938; ATP luminescence, replicate 2 = 65748
Or43b [DRSC29565] — mean Z score = 0.266; ATP luminescence, replicate 1 = 65650; ATP luminescence, replicate 2 = 65331
Hk [DRSC24985] — mean Z score = 0.254; ATP luminescence, replicate 1 = 63187; ATP luminescence, replicate 2 = 57048
Hk [DRSC39129] — mean Z score = 0.0696; ATP luminescence, replicate 1 = 52641; ATP luminescence, replicate 2 = 46955
Itgbn [DRSC03493] — mean Z score = 0.155; ATP luminescence, replicate 1 = 54368; ATP luminescence, replicate 2 = 35050
Itgbn [DRSC39788] — mean Z score = -0.451; ATP luminescence, replicate 1 = 49315; ATP luminescence, replicate 2 = 50429
CG31793 [DRSC02605] — mean Z score = -0.252; ATP luminescence, replicate 1 = 45868; ATP luminescence, replicate 2 = 35925
CG31793 [DRSC24308] — mean Z score = -0.304; ATP luminescence, replicate 1 = 51701; ATP luminescence, replicate 2 = 61800
CG32263 [DRSC22431] — mean Z score = 0.531; ATP luminescence, replicate 1 = 58317; ATP luminescence, replicate 2 = 66480
CG32263 [DRSC29009] — mean Z score = 0.466; ATP luminescence, replicate 1 = 69979; ATP luminescence, replicate 2 = 67149
wun2 [DRSC07566] — mean Z score = -0.135; ATP luminescence, replicate 1 = 58144; ATP luminescence, replicate 2 = 69716
wun2 [DRSC36974] — mean Z score = -0.00922; ATP luminescence, replicate 1 = 47909; ATP luminescence, replicate 2 = 46880
wun2 [DRSC36975] — mean Z score = 0.65; ATP luminescence, replicate 1 = 55736; ATP luminescence, replicate 2 = 59569
